# In patent publication US20260139033A1 (PRANA THERAPIES, published 2026):
# Sequences of proteins named here, by UniProt entry; tags and fusion partners are left off. Residues count along the entry.
# UniProt P24394, residues 26-232: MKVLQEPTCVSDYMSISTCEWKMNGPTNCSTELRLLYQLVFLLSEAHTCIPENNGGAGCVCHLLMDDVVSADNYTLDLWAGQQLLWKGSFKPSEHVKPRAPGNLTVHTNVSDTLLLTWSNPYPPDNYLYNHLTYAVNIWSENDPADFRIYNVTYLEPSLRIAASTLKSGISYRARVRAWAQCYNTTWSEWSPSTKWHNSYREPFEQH
# These are yes or no findings as the source states them, for the method shown.
# Target: soluble IL-4Rα (human) (UniProt P24394)
# Assay: condition: 500 nM (top IL-4R analyte concentration per paragraph 167; not printed on the sheet); SPR (Biacore 3000, CM5 chip, 25 C): complex captured via protein A, IL-4R as analyte
binder,measurement,value
"Candidate-5 (TRAP-2) (other, Monospecific TSLP-TRAP complex on palivizumab (human IgG4 S228P, YTE)) heavy chain with C-terminal TSLP TRAP 2 (palivizumab-YTE heavy chain, first linker, TSLP-TRAP): QVTLRESGPALVKPTQTLTLTCTFSGFSLSTSGMSVGWIRQPPGKALEWLADIWWDDKKDYNPSLKSRLTISKDTSANQVVLKVTNMDPADTATYYCARSMITNWYFDVWGAGTTVTVSSASTKGPSVFPLAPCSRSTSESTAALGCLVKDYFPEPVTVSWNSGALTSGVHTFPAVLQSSGLYSLSSVVTVPSSSLGTKTYTCNVDHKPSNTKVDKRVESKYGPPCPPCPAPEFLGGPSVFLFPPKPKDTLYITREPEVTCVVVDVSQEDPEVQFNWYVDGVEVHNAKTKPREEQFNSTYRVVSVLTVLHQDWLNGKEYKCKVSNKGLPSSIEKTISKAKGQPREPQVYTLPPSQEEMTKNQVSLTCLVKGFYPSDIAVEWESNGQPENNYKTTPPVLDSDGSFFLYSRLTVDKSRWQEGNVFSCSVMHEALHNHYTQKSLSLSLGGGGGSGGGGSGGGGSGGGGSESGYAQNGDLEDAELDDYSFSCYSQLEVNGSQHSLTCAFEDPDVNITNLEFEICGALVEVKCLNFRKLQEIYFIETKKFLLIGKSNICVKVGEKSLTCKKIDLTTIVKPEAPFDLSVVYREGANDFVVTFNTSHLQKKYVKVLMHDVAYRQEKDENKWTHVNLSSTKLTLLQRKLQPAAMYEIKVRSIPDHYFKGFWSEWSPSYYFRTPEINNSSGEMDGGSGGSGGSGGSGGSGGSGGSGGSGGSGGSGGSGGSGGSGGSGGSGGSGGSGGSGGSGGSGAAEGVQIQIIYFNLETVQVTWNASKYSRTNLTFHYRFNGDEAYDQCTNYLLQEGHTSGCLLDAEQRDDILYFSIRNGTHPVFTASRWMVYYLKPSSPKHVRFSWHQDAVTVTCSDLSYGDLLYEVQYRSPFDTEWQSKQENTCNVTIEGLDAEKCYSFWVRVKAMEDVYGPDTYPSDWSEVTCWQRGEIRDACAETPTPPKPKLSK light chain: DIQMTQSPSTLSASVGDRVTITCKCQLSVGYMHWYQQKPGKAPKLLIYDTSKLASGVPSRFSGSGSGTAFTLTISSLQPDDFATYYCFQGSGYPFTFGGGTKLEIKRTVAAPSVFIFPPSDEQLKSGTASVVCLLNNFYPREAKVQWKVDNALQSGNSQESVTEQDSKDSTYSLSSTLTLSKADYEKHKVYACEVTHQGLSSPVTKSFNRGEC",binding,no binding
